Assay results as given in patent publication US6075009A (East Carolina University, priority 1995, dated 2000).

Assay: Fmoc solid-phase peptide synthesis; PAL resin; BOP
Details: whole synthesis

[dY]INLI[dT]RQR[dY]-NH2
final purity (method not given): ≥95%

Square brackets hold non-standard residues; d marks the D form. Ends that are not written are not given here.
